PubChem BioAssay AID686943, Drosophila RNAi Screening Center, 2013
The screen tested about 23,000 reagents; below is a random part of those that have a named target and a result. 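Extra replicates exist only for a retested subset of genes; insulin dose and duration not given; both raised and lowered dpERK matter.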 No sequences are given here. Not given: the amount of reagent, the time to read-out.

Screen: 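Knockdowns that increase or decrease active ERK after insulin receptor stimulation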 (primary screen)
Cells: Drosophila S2R+ haemocyte-like cells expressing YFP-tagged ERK (Rolled)
Knock-down reagent: long dsRNA against Drosophila genes
Treatment: insulin stimulation versus unstimulated cells; dose and duration not given
Detection: 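Per-plate z-scores of phospho-ERK immunostaining normalised to YFP-tagged ERK, measured with and without insulin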
Reading the numbers: replicate 1, z-score of dpERK with insulin and replicate 2, z-score of dpERK with insulin: higher = more active ERK per ERK-YFP after insulin; replicate 1, z-score of dpERK under basal conditions: higher = more basal active ERK per ERK-YFP; replicate 1, z-score of ERK-YFP with insulin: higher = more YFP-tagged ERK signal

no.	target gene	DRSC id	replicate 1, z-score of dpERK with insulin	replicate 2, z-score of dpERK with insulin	replicate 1, z-score of dpERK under basal conditions	replicate 1, z-score of ERK-YFP with insulin
1	Mob3 (GeneID 34372)	DRSC02791	-0.32	0.5	-0.29	0.05
2	Osi12 (GeneID 40766)	DRSC12177	0.94	0.5	-0.26	0.11
3	CG1494 (GeneID 33102)	DRSC20509	-0.52	0.31	-0.69	0.55
4	Tengl1 (GeneID 318883)	DRSC00481	-0.3	-0.51	-0.65	0.6
5	CG30095 (GeneID 246453)	DRSC07175	-0.62	-0.17	0.6	0.27
6	CG14989 (GeneID 38485)	DRSC08448	-0.22	0.73	0.6	0
7	lds (GeneID 45894)	DRSC16988	0.22	-0.32	0.71	-0.55
8	Syx6 (GeneID 40373)	DRSC07032	-0.87	-0.65	0.24	0.09
9	CG9636 (GeneID 40967)	DRSC16529	-0.13	-0.17	-1.04	-0.03
10	rho (GeneID 38168)	DRSC08734	3.54	0.69	-0.84	-3.43
11	CG31360 (GeneID 318698)	DRSC13255	0.12	-0.04	1.17	0.56
12	Ufsp2 (GeneID 39687)	DRSC10231	-0.22	0.43	0.75	0.36
13	sau (GeneID 33402)	DRSC00694	2.89	1.05	0.04	-0.64
14	chif (GeneID 34974)	DRSC03508	0.35	0.94	0.02	-0.18
15	CG5167 (GeneID 41521)	DRSC15728	0.69	1.45	0.46	0.09
16	ATP8A (GeneID 36488)	DRSC05421	-0.46	-0.19	0.69	0.37
17	ATP8A (GeneID 36488)	DRSC06643	0.29	0.45	0.08	0.58
18	ATP8A (GeneID 36488)	DRSC06644	-0.99	-0.12	0.2	0.57

Continued; the last 3 above are carried over.
no.	target gene	DRSC id	replicate 1, z-score of dpERK with insulin	replicate 2, z-score of dpERK with insulin	replicate 1, z-score of dpERK under basal conditions	replicate 1, z-score of ERK-YFP with insulin
16	ATP8A (GeneID 36488)	DRSC05421	-0.46	-0.19	0.69	0.37
17	ATP8A (GeneID 36488)	DRSC06643	0.29	0.45	0.08	0.58
18	ATP8A (GeneID 36488)	DRSC06644	-0.99	-0.12	0.2	0.57
19	CG31437 (GeneID 318735)	DRSC13711	0.58	0.54	-0.25	0.71
20	CG13231 (GeneID 36169)	DRSC06351	0.58	0.26	0.24	-0.2
21	CG5021 (GeneID 39025)	DRSC10469	-0.35	0.22	0.58	0.54
22	CG32436 (GeneID 40362)	DRSC11683	-1.54	0.17	1.56	0.6
23	CG32436 (GeneID 40362)	DRSC11796	-0.69	-0.31	-0.95	0.7
24	CG3288 (GeneID 40307)	DRSC11745	0.55	0.09	1	-0.01
25	geko (GeneID 50263)	DRSC10044	0.03	-0.4	0.06	-0.59
26	geko (GeneID 50263)	DRSC10045	-0.05	-0.27	-0.45	0.25
27	CG10064 (GeneID 38761)	DRSC09689	0.24	0.21	-0.54	-0.63
28	ac (GeneID 30981)	DRSC18734	-3.15	-2.13	-2.1	0.86
29	Eig71Ei (GeneID 39710)	DRSC11156	0.39	0.78	0.8	-0.06
30	RpL36 (GeneID 31009)	DRSC18708	-0.27	-0.68	-1.48	-4.53
31	CG13965 (GeneID 35280)	DRSC02307	-0.26	0.3	0.44	-0.4
32	CRIF (GeneID 40395)	DRSC11811	-0.7	-0.43	0.66	1.82
33	Mal-A2 (GeneID 35825)	DRSC07460	0.42	0.36	-0.08	0.3
34	CG6310 (GeneID 39237)	DRSC10619	0.53	0.44	0.13	0.2
35	Ube3a (GeneID 39266)	DRSC10600	0.23	0.15	1.17	-0.55
36	CG11378 (GeneID 31060)	DRSC18627	-0.6	0.3	-0.16	1.47
37	RpL13A (GeneID 40687)	DRSC12265	-3.36	2.33	2.1	-2.22
38	Grx5 (GeneID 32410)	DRSC19593	0.12	2.05	0.36	0.28
39	CG17350 (GeneID 35210)	DRSC02611	0.86	0.2	2.01	0.01
